Reference: publication PMC12631243

Target: GPX4 (mouse (endogenous in 661W))
Test: co-IP; Pierce Crosslink Magnetic IP/Co-IP Kit; antibody cross-linked to magnetic beads with DSS, incubated with cell lysate for 2 hours at room temperature, eluate detected by western blotting; lysate of atRAL-loaded 661W cells; which protein was precipitated is not told

binding: no binding
B1: GSDME-N (N-terminal fragment of gasdermin E) (domain or fragment, UniProt Q9Z2D3 1-270)
chain: MFAKATRNFLKEVDAGGDLISVSHLNDSDKLQLLSLVTKKKRYWCWQRPKYQILSATLEDVLTEGHCLSPVVVESDFVKYESKCENHKSGAIGTVVGKVKLNVGGKGVVESHSSFGTLRKQEVDVQQLIQDAVKRTVNMDNLVLQQVLESRNEVLCVLTQKIMTTQKCVISEHVQSEETCGGMVGIQTKTIQVSATEDGTVTTDTNVVLEIPAATTIAYGIMELFVKQDGQFEFCLLQGKHGGFEHERKLDSVYLDPLAYREFAFLDMLD

Results are given in words; binding and its absence hold for the method and conditions named. Binding seen in cells or lysates may run through a third protein.
